Amino acid sequences for entries named in this document (tags omitted).
UniProt P41595, whole entry: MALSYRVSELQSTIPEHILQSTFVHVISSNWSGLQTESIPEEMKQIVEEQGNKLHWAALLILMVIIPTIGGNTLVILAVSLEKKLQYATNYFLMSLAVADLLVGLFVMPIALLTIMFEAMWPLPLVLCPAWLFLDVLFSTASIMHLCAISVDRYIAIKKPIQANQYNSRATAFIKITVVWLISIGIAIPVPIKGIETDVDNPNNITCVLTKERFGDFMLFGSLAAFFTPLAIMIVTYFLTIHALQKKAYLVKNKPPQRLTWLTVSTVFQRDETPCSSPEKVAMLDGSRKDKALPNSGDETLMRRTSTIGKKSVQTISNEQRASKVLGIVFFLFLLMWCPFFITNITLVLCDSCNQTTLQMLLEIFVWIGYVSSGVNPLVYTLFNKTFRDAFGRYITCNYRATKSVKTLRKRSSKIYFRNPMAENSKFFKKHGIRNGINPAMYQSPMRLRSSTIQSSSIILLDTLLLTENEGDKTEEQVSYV

According to ChEMBL document CHEMBL3102773, “The synthesis and comparative receptor binding affinities of novel, isomeric pyridoindolobenzazepine scaffolds” (Bioorg Med Chem Lett, 2014):

Target: 5-hydroxytryptamine receptor 2B (Homo sapiens, UniProt P41595)

SMILES: CC[C@@H](CO)NC(=O)[C@@H]1C=C2c3cccc4c3c(cn4C)C[C@H]2N(C)C1 [METHYSERGIDE]
- Ki: 7.6 nM
